From patent publication US11931349B2, “Iron chelators in tumor therapy” (Deutsches Krebsforschungszentrum Stiftung des öffentlichen …, priority 2017, dated 2024)
At least one structure is not confirmed: it was looked up by name or label, or the drawing left a doubt.

System: HPV18 and HPV16 E6 and E7 protein levels
Assay: E6/E7 protein levels after other iron chelators
Assay type: cell-based
Conditions: DFO 100 mM stock diluted 1:1000; BP 100 μM
Description: For all experiments CPX olamine compound from Sigma-Aldrich (C0415-1G) was utilized, stored at room temperature. The powder was diluted in 100% EtOH and prepared freshly for every experiment. Therefore, EtOH was used as a solvent control in experiments performed with CPX. Stock solutions of 10 mM were prepared and diluted 1:1000 in medium for the treatment of cells. DFO from Sigma-Aldrich was used as a deferoxamine mesylate salt. DFO was stored as a powder at −20° C. and diluted in distilled H2O to a stock solution of 100 mM, which can be stored at −20° C. for 7 days. For the treatment of cells DFO stock was diluted 1:1000 in medium. BP from Sigma-Aldrich was dissolved in ethanol (100 mM, stable for several months) and used for the treatment of cells with a final concentration of 100 μM.

SMILES: CC(=O)N(O)CCCCCNC(=O)CCC(=O)N(O)CCCCCNC(=O)CCC(=O)N(O)CCCCCN [DFO, Deferoxamine]
- HPV18 and HPV16 E6 and E7 protein levels: reduce both HPV18 and HPV16 E6 and E7 protein levels
